# Source: the supplement of paper PMC3334620
# The full ranking holds about 33,000 sequences; the median of “E-score (-0.5 to 0.5)” is about -0.0034, and the highest 2% start at about 0.25. Some of the results follow.
# Molecular target: T1, Yap3 (UniProt P38749)
# T1 sequence: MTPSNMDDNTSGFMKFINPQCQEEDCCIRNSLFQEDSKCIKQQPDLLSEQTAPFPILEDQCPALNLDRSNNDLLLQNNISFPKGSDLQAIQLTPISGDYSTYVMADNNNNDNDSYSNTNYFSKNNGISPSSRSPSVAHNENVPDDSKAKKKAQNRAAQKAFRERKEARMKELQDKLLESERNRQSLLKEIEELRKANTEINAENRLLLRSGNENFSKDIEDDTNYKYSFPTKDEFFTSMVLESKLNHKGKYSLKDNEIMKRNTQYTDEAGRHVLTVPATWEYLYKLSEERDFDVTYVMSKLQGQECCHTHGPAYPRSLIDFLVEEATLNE
# Experiment: PBM E-score (8-mer binding enrichment) (E-score (-0.5 to 0.5)); higher = stronger / more preferred TF binding
# Details: protein concentration: 100 nM; construct: GST-full length
# Outline: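 Each ungapped eight-base word and its reverse complement, pooled, received an E-score from the Universal PBM Analysis Suite. Underlying scans, normalised with masliner, recorded fluorescent anti-GST bound to GST-tagged yeast transcription factors. These were applied at about 100-200 nM to universal all-10-mer Agilent arrays double-stranded by primer extension.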
row,Sequence,PBM E-score
1,ACGCGTTA,0.0763
2,ACGAGTTG,0.0523
3,AATAGAAG,0.0527
4,CAGAGACC,-0.174
5,AAGTTCTG,0.0338
6,TAGCAGGA,-0.0369
7,ATTCTGCC,0.091
8,GGGCGAAA,0.0712
9,GGTTAGAC,-0.00764
10,AACCTCGG,-0.00934
11,CTGGATAC,-0.00517
12,CTGCTCGC,0.0118
13,CGCGCGGA,0.0752
14,CTCGCCTC,-0.0751
15,CTTAGAAA,0.0225
16,CTGTCCGA,0.00146
17,CATATCCA,-0.141
18,CACAAGAC,-0.122
19,AACAGGCT,-0.00531
20,CAAATCCC,-0.0466
21,AAGCCTGG,-0.0378
22,CCTGTGGC,-0.209
23,ATGGATCA,-0.0431
24,TGGCTTAA,0.162
25,AAGGTTCA,-0.0126

# Three records picked at random from the list so far:
row,Sequence,PBM E-score
15,CTTAGAAA,0.0225
3,AATAGAAG,0.0527
11,CTGGATAC,-0.00517

# The results go on.

row,Sequence,PBM E-score
1,TCGCTAGA,-0.0924
2,GCGCTAGA,0.009
3,TAACTCTA,0.0162
4,CAGAACAC,-0.0794
5,AGGCCGAC,-0.101
6,TTGGCCAA,-0.0814
7,AAGAGTAT,-0.0379
8,AGCACAGC,-0.0999
9,AGCTGTGG,-0.0874
10,AATGTAGG,-0.0573
11,AGTCCCTG,-0.281
12,CCCTAGAC,-0.235
13,GACTTCGC,0.151
14,CTGTTTGA,0.0939
15,CGCTGTTC,-0.0746
16,AGGCTACG,-0.275
17,AGTTTTAA,0.146
18,GTAAAAAC,0.15
19,GCTCGGAA,-0.0694
20,GCTCCCTA,-0.209
21,CCTAAACG,-0.108
22,ACCGAACG,-0.0625
23,GCGCGAAA,0.132
24,ACACTCTG,-0.092
25,CCGCCACC,-0.155

row,Sequence,PBM E-score
1,ACTCTGCG,-0.0354
2,ATAGCGCG,0.192
3,CAGAACCG,0.0474
4,GAACTATC,0.069
5,CTAATCCA,0.041
6,CAACAAAC,0.0127
7,GTGCACAC,-0.151
8,TAGCCCAA,0.0307
9,CTCTGGAC,0.00343
10,CTCGGCTA,-0.0459
11,GCATAAGA,0.0573
12,ATAGTACC,0.102
13,GGTACCAC,-0.194
14,ATTTGGCG,0.0286
15,AGACTCGA,-0.0951
16,AAATTTTG,0.0174
17,ACTGTCCT,-0.012
18,AATTTCGG,0.0925
19,AAGTCAGC,0.0521
20,AGCACTGC,-0.0181
21,ATTGCCAG,0.203
22,AATACCAC,0.101
23,GCTTCTCC,-0.109
24,CATCGGCG,-0.136
25,ACAGTGAC,0.0408

# Not a retest: an excerpt of the list.
row,Sequence,PBM E-score
13,GGTACCAC,-0.194
14,ATTTGGCG,0.0286
15,AGACTCGA,-0.0951

# Remaining list, next part:

row,Sequence,PBM E-score
1,CGTCAATA,-0.0519
2,ATGCGGAC,-0.151
3,CTGGTACC,-0.197
4,TTCGCCAA,-0.264
5,CGGTGCCA,-0.26
6,AACTATCA,0.216
7,GTATTACA,0.291
8,CTGCGCGC,0.195
9,ACCTGAGC,-0.0503
10,ACGATTAA,0.0578
11,ACTCAGAT,0.0286
12,AGATGGCA,0.0107
13,TCCGCGCA,-0.0788
14,AAAGGTGG,0.0659
15,ACGGCCTA,-0.0243
16,AACAAGAA,0.253
17,AGTGGATG,-0.00012
18,ACAGACCC,-0.168
19,TACCTGAA,0.0994
20,GTTCAGAA,0.0372
21,AACATTCG,-0.0486
22,AATTACCG,0.162
23,AAAGCCCG,-0.164
24,CTCCCTTC,-0.317
25,CTCTTGAC,-0.066

row,Sequence,PBM E-score
1,GTTTTGTA,0.211
2,GACGCGAC,-0.0383
3,AGCAAGAT,0.14
4,AACGGGTC,-0.231
5,CATTCGGC,-0.0237
6,GGCTGACA,0.022
7,AGCGGTCA,-0.0767
8,TCTATTCA,0.222
9,AAGCCGAG,-0.00369
10,ACCCGACT,0.0959
11,GCGAATCC,0.0544
12,TACTTCTA,0.16
13,AATACAGA,0.139
14,ACGAGAGG,-0.0888
15,CGTACATA,0.17
16,ACGAAGCG,-0.188
17,CACCACTG,-0.0386
18,ATCGACGA,-0.0934
19,CCGACTAC,-0.208
20,CAGGTCCA,-0.166
21,CTTGCGCC,-0.0687
22,GTTCGTGA,-0.165
23,AAGAGGCC,-0.154
24,AGCGCCCT,-0.171
25,GGTAGACC,-0.0755

row,Sequence,PBM E-score
1,GACCGACC,-0.101
2,GTGACCGA,-0.132
3,CAAAGTGG,-0.17
4,AGTACGTA,0.241
5,ACCTTCGC,-0.149
6,CAGCGGAG,-0.0541
7,GACCGGAC,-0.136
8,CTCTAATC,-0.0693
9,CACGAGTC,-0.0731
10,CAAACGAG,-0.029
11,ATATTGAA,0.124
12,AATCATAG,0.147
13,CAACAGCA,0.0814
14,ACCCAAAC,0.0961
15,CCAGGGAC,-0.181
16,ATGTCTTC,-0.215
17,ATCCCCAC,0.0332
18,CTAGTGAA,-0.106
19,ATTAAGGA,0.0554
20,ATTCTTTG,0.175
21,GCTGATGA,0.0583
22,AGCTGCGA,-0.0657
23,GCCATTCA,-0.00615
24,CGCCAAGC,-0.221
25,ACCTCGCA,-0.00872

row,Sequence,PBM E-score
1,AACAGCAA,0.238
2,AACCGTGA,0.0686
3,ACACACGC,0.112
4,CTCAGAAA,0.145
5,CTTACCCC,-0.159
6,ACTTGTTG,-0.123
7,CAGACTAA,-0.0227
8,AAGGAGTG,-0.0362
9,ATGTACCG,-0.00608
10,ACCAATAT,0.254
11,CGGCTCTA,-0.067
12,AGTACGCA,-0.203
13,AAGAGACG,-0.0232
14,CGGCCATA,-0.106
15,ACGCAATG,-0.0418
16,ATGTAAAG,0.0929
17,AGGTCTTA,-0.12
18,CAGAGTCG,-0.0868
19,CAGCATAG,-0.0432
20,ATAGCACC,-0.0773
21,CGCCATAG,-0.0105
22,GAGACCTC,-0.189
